# According to PubChem BioAssay AID504834 (National Center for Advancing Translational Sciences (NCATS), 2011):
# In all, about 320,000 compounds went through this assay and about 22,000 (6.9%) were called active. This list was built around the results that the source calls inconclusive (neither active nor inactive); the mix of calls is not that of the screen. The call rests on the fitted dose curve; in most records, active means well fitted inhibition curve with a large enough effect; inconclusive means small, poorly fitted or top-dose-only effect, or another doubt; inactive means no such curve, though single readings can be large or run the other way. Potencies of inconclusive entries are doubtful fits and often do not repeat.
# Test: Primary qHTS for delayed death inhibitors of the malarial parasite plastid, 96 hour incubation
# Conditions: P. falciparum luciferase reporter growth; series mostly up to 28.7 µM
# In short: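 Two parasite generations (96 h, 37 C, 5% CO2) of compound exposure in infected erythrocytes (0.05% parasitemia, 2% hematocrit). Luciferase-reporter P. falciparum; decreased luminescence indicates inhibited growth, aimed at apicoplast-acting delayed death.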
# Potency means the concentration at half of the fitted maximal effect.
row,SMILES,Potency
1,COCCSc1ccccc1C(=O)N1CCN(c2ccccc2OC)CC1,inactive
2,Cc1cc(=O)n(C)c(=O)n1CCCNc1ccccc1,"inconclusive: 5.22 µM [inhibitor, partial curve, poor fit]"
3,Cc1cccc2sc(NNC(=O)c3ccc(S(=O)(=O)N4CCc5ccccc5C4)cc3)nc12,active: 5.22 µM
4,COc1ccc(-c2cc(C(=O)c3c(N)n(C)c(=O)n(C)c3=O)c3ccccc3n2)cc1,inactive
5,CC(=O)Nc1ccc(NC(=O)COC(=O)c2c(-c3ccccc3)noc2C)cc1,inactive
6,Cc1ccc(C(=O)Nc2nnc(S(=O)(=O)N3CCC(C)CC3)s2)cc1,inactive
7,CC(NC(N)=O)C(=O)Nc1ccc(Cl)c(S(=O)(=O)Nc2ccc(Br)cc2)c1 (centres undefined),inactive
8,CCn1c(SCC(=O)N/N=C/C=C/c2ccccc2[N+](=O)[O-])nnc1-c1ccccc1,"inconclusive: 9.28 µM [inhibitor, partial curve, poor fit]"
9,C/C(N)=C(/C#N)C(=O)COC(=O)c1ccccc1C(=O)c1ccc(C)cc1,inactive
10,C=C(C)CN(CC)C(=O)CC1C(=O)NCCN1C (centres undefined),inactive
11,CCOC(=O)C1CCCN(C(=O)CN2CCN(Cc3ccc(Cl)cc3)C2=O)C1 (centres undefined),active: 1.65 µM
12,CC(/C=N/NC(=O)CSc1nnc(SCc2ccccc2)s1)=C\c1ccco1,"inconclusive: 0.294 µM [inhibitor, partial curve, poor fit]"
13,COc1cc(C)ccc1OCc1cc(C(=O)NCc2ccncc2)no1,inactive
14,Cc1ccccc1NC(=S)Nc1ccccn1,"inconclusive: 10.4 µM [inhibitor, single point]"
15,COc1cccc(C2CC(=O)Nc3n[nH]c(-c4ccccc4)c32)c1OC (centres undefined),"inconclusive: 13.1 µM [inhibitor, partial curve]"
16,COc1ccc(C(=O)NC(=S)NCc2ccco2)cc1OC,active: 7.38 µM
17,CC(Oc1ccccc1)C(=O)N1CCc2ccccc2C1 (centres undefined),"inconclusive: 14.7 µM [inhibitor, single point]"
18,Cc1ccn2cc(C(=O)Nc3ccccc3N3CCOCC3)nc2c1,"inconclusive: 10.4 µM [inhibitor, single point]"
19,O=C(NCCNC(=O)c1ccc(Cl)cc1Cl)c1cnccn1,"inconclusive: 1.04 µM [inhibitor, full curve]"
20,Cc1ccc2c(c1)-c1cc(C)nn1C(c1ccc3c(c1)OCO3)N2 (centres undefined),"inconclusive: 1.31 µM [inhibitor, full curve, poor fit]"
21,CCC1(c2ccc(F)cc2)NC(=O)N(CC(=O)c2cc(C)n(C3CC3)c2C)C1=O (centres undefined),"inconclusive: 10.4 µM [inhibitor, partial curve]"
22,Nc1cc2c(cc1C(=O)c1cccc(Br)c1)OCCO2,inactive
23,NS(=O)(=O)c1ccc(CCNC(=O)c2ccc3c(c2)OCO3)cc1,"inconclusive: 18.5 µM [inhibitor, partial curve, poor fit]"
24,Cc1cccc(N2CC(C(=O)Nc3nnc(SCc4cccnc4)s3)CC2=O)c1 (centres undefined),"inconclusive: 18.5 µM [inhibitor, single point]"
25,COc1nsnc1NS(=O)(=O)c1ccc(NC(=S)NC(=O)c2ccncc2)cc1,inactive

# Some of the entries so far, bar-delimited.
row | SMILES | Potency
4 | COc1ccc(-c2cc(C(=O)c3c(N)n(C)c(=O)n(C)c3=O)c3ccccc3n2)cc1 | inactive
6 | Cc1ccc(C(=O)Nc2nnc(S(=O)(=O)N3CCC(C)CC3)s2)cc1 | inactive
7 | CC(NC(N)=O)C(=O)Nc1ccc(Cl)c(S(=O)(=O)Nc2ccc(Br)cc2)c1 (centres undefined) | inactive

# More results follow.

row,SMILES,Potency
1,N#C/C(=C(/O)CN1CCOCC1)c1nc2ccccc2s1,inactive
2,COc1ccc(C2C(C#N)=C(C)NC3=C2C(=O)c2ccccc23)cc1 (centres undefined),"inconclusive: 4.65 µM [inhibitor, partial curve, poor fit]"
3,COc1cc(NC(=O)CCc2nnc3ccc(N4CCN(c5cccc(OC)c5)CC4)nn23)cc(OC)c1,active: 3.29 µM
4,CCOc1ccc(C(=O)NCC(=O)OCC(=O)Nc2ccc(C)c(S(=O)(=O)N(C)C)c2)cc1,inactive
5,CC(=O)N1CCN=C1SCc1cccc(Cl)c1,"inconclusive: 18.5 µM [inhibitor, single point]"
6,Cc1ccc(N2C(=O)CC(Sc3nc(-c4ccccc4)c4cc(Cl)ccc4n3)C2=O)c(C)c1 (centres undefined),inactive
7,COCCNC(=O)C(c1ccc(C)o1)N(Cc1ccc(F)cc1)C(=O)Cn1nnc2ccccc21 (centres undefined),"inconclusive: 14.7 µM [inhibitor, partial curve, poor fit]"
8,CN1CCN(C(=O)NC2CCCCC2)CC1,"inconclusive: 11.7 µM [inhibitor, single point]"
9,O=c1oc2ccccc2c2c1C1O[C@](c3ccsc3)(Cc3ccccc31)O2,"inconclusive: 0.019 µM [inhibitor, full curve, poor fit]"
10,Cc1noc(C(=O)Nc2cccc(O)c2)c1Cl,inactive
11,CSCCC(NC(=O)c1cccc(C)c1)C(=O)OCC(=O)Nc1c(C)nn(-c2ccccc2)c1C (centres undefined),inactive
12,CC(=O)OC1CCC2C3CCc4cc(O)ccc4C3CCC12C (centres undefined),"inconclusive: 7.57 µM [inhibitor, partial curve]"
13,NC(=O)c1ccc(NC(=O)CCc2nc3ccccc3s2)cc1,inactive
14,O=C(Nc1nc2ccccc2[nH]1)c1ccc(S(=O)(=O)N2CCOCC2)cc1,inactive
15,Cc1ccc(NC(=S)NC2CCN(Cc3ccccc3)CC2)c(C)c1,"inconclusive: 18.5 µM [inhibitor, single point]"
16,CCOC(=O)C1(CCCc2ccccc2)CCN(C(=O)CCn2cncn2)CC1,inactive
17,CCOc1ccc(-n2c(SCC(N)=O)nc3c(c2=O)SCC3)cc1,inactive
18,Cc1nc2ncccn2c1-c1csc(Nc2ccc(S(N)(=O)=O)cc2)n1,inactive
19,Cc1ccc(-c2csc3ncnc(NCCC(=O)O)c23)cc1C,inactive
20,CC1=C(CC(=O)c2ccccc2)C(=O)c2ccccc2C1=O,active: 0.828 µM
21,CCN1C(=O)N(CC)c2cccc3cccc1c23,"inconclusive: 18.5 µM [inhibitor, single point]"
22,C=CCNC(=O)c1cc(-c2cccnc2)nc2ccccc12,"inconclusive: 3.29 µM [inhibitor, partial curve, poor fit]"
23,CCN(CC)S(=O)(=O)c1cc(NC(=O)c2cc([N+](=O)[O-])ccc2N2CCOCC2)ccc1C,"inconclusive: 18.5 µM [inhibitor, single point]"
24,CC(C)n1nc(C(=O)Nc2cccc(S(=O)(=O)N3CCCCC3)c2)c2ccccc2c1=O,"inconclusive: 11.7 µM [inhibitor, single point]"
